Values of other authors as cited in patent EP2186515A1, “PHARMACEUTICAL COMPOSITION COMPRISING THE COMBINATION OF AN ANTI-DEPRESSIVE AGENT AND AN ANSIOLYTIC AGENT FOR CONTROL AND TREATMENT OF DEPRESSIVE DISORDERS” (World Trade Import-Export, WTIE A.G., priority 2007, dated 2009).

Tested on: plasma proteins
Settings: cited from earlier work

Question: For `CN[C@H]1CC[C@@H](c2ccc(Cl)c(Cl)c2)c2ccccc21` [Sertraline], which “attached to plasma proteins” value is on record?
Answer: 99%
